The exact form of at least one protein or probe is not confirmed. For part of these data: Results from cells or extracts need not show a direct contact. Where a protein sequence is shown, tags need not be part of it. For part of these data: At least one verdict rests on a figure or table, not on a statement of the authors.
Key:
His-ΔN-ZNF395 del1-114 [1] = molecular target: T1, His-ΔN-ZNF395 del1-114 (UniProt Q9H8N7); experiment: EMSA; conditions: Native PAA gel shift, 200 pg 32P-labeled oligonucleotide, 250-fold excess competitor; recombinant protein; residues 115-513; protein details: His; label: 32P (gamma-ATP) or unlabeled as competitor
T1 sequence (looked up): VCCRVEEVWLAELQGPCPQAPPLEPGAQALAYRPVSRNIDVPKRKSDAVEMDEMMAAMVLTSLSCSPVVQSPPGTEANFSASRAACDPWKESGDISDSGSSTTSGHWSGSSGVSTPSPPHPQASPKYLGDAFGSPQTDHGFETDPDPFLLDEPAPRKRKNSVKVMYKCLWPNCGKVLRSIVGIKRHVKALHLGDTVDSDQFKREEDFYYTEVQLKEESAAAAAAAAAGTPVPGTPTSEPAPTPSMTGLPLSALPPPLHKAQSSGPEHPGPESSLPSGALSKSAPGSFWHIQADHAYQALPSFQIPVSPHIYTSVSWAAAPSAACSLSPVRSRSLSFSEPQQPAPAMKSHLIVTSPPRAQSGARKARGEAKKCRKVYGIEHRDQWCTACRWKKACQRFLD

FLAG-ZNF395 [2] = molecular target: T2, FLAG-ZNF395 (UniProt Q9H8N7); experiment: competition with a labelled probe; conditions: nuclear extract +Dox, labeled ISRE-wt, 250-fold excess unlabeled ISRE-mut, putative ZNF395 complex; protein in an extract; protein details: FLAG; label: 32P (gamma-ATP) or unlabeled as competitor
T2 sequence (looked up, limits assumed): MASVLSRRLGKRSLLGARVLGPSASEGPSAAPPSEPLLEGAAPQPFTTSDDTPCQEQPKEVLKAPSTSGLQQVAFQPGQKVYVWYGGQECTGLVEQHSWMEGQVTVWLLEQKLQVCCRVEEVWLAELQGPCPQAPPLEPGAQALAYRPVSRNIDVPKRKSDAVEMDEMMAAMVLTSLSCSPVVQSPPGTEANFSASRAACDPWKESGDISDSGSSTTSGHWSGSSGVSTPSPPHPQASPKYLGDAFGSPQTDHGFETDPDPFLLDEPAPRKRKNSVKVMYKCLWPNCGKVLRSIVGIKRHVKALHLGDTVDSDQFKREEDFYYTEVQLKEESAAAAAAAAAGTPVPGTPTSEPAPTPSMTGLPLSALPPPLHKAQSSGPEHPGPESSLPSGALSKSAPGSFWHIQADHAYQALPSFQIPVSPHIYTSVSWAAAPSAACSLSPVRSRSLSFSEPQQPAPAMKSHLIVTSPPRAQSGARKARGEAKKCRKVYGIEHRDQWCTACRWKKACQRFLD

His-ΔN-ZNF395 del1-114 [3] = molecular target: T1, His-ΔN-ZNF395 del1-114; experiment: competition with a labelled probe; conditions: recombinant protein, residues 115-513, protein details: His, label: 32P (gamma-ATP) or unlabeled as competitor
FLAG-ZNF395 [4] = molecular target: T2, FLAG-ZNF395; experiment: EMSA; conditions: nuclear extract +Dox, putative ZNF395 complex (might represent ZNF395); Native PAA gel shift, 200 pg 32P-labeled oligonucleotide, 250-fold excess competitor; protein in an extract; protein details: FLAG; label: 32P (gamma-ATP) or unlabeled as competitor

Measured: binding result

TTTAGTGTCACTTTCCCCTGTCGGTTTCCCTAGGT (double strand) [ISRE-mut114/101]
binds: His-ΔN-ZNF395 del1-114 [1] | FLAG-ZNF395 [2] | His-ΔN-ZNF395 del1-114 [3]; 250-fold excess unlabeled ISRE-mut

TTTAGTTTCACTTTCCCCTTTCGGTTTCCCTAGGT (double strand) [ISRE-wt (ISG56 ISRE I/II)]
binds: FLAG-ZNF395 [4] | His-ΔN-ZNF395 del1-114 [1] | His-ΔN-ZNF395 del1-114 [3]; 250-fold excess unlabeled ISRE-wt, outcome not stated separately

Reference: paper PMC3781154
